Laboratory results: publication PMC11494653 (The Journal of Organic Chemistry, 2024)

Test: general procedure: Fmoc solid-phase peptide synthesis; 2-chlorotrityl chloride resin (1.07 mmol/g); HCTU, 2,4,6-collidine
Settings: whole synthesis, scale of the general procedure 300 mg resin, 0.32 mmol total, trifluoroacetate (TFA) salt

For Ile4,Gln5,Lys10-teixobactin, the outcome was “we were unable to synthesize the swapmer Ile4,Gln5,Lys10-teixobactin”.
